Measured values taken from PMC1847842.
No constants are given. Whether binding was seen depends on the method and setting. Some entries that bind do so weakly or less than the wild type.

T1: mouse wt DMC1 (mouse) (UniProt Q61880)
T1 sequence: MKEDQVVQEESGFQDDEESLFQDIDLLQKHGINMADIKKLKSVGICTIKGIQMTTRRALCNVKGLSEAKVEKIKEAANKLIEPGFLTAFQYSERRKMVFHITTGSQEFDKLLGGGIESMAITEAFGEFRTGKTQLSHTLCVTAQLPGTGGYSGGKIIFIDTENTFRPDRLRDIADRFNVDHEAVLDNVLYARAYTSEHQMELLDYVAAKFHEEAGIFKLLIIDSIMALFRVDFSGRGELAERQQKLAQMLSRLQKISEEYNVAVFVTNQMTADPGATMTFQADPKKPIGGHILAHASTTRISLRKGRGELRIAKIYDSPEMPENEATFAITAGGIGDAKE


Columns and labels:
mouse DMC1^Mei11 (mouse) = mouse DMC1^Mei11 (mouse) (UniProt Q61880); experiment: two-hybrid; yeast two-hybrid; mouse wt DMC1 and DMC1^Mei11 as bait and prey; strains grown on SD-Leu/Trp/His/Ade agar plates
mouse wt DMC1 (mouse) = target: T1, mouse wt DMC1 (mouse); experiment: as above

Row | Binder | binding (mouse DMC1^Mei11 (mouse)) | binding (mouse wt DMC1 (mouse))
1 | mouse DMC1^Mei11 (protein, UniProt Q61880 1-340) MKEDQVVQEESGFQDDEESLFQDIDLLQKHGINMADIKKLKSVGICTIKGIQMTTRRALCNVKGLSEAKVEKIKEAANKLIEPGFLTAFQYSERRKMVFHITTGSQEFDKLLGGGIESMAITEAFGEFRTGKTQLSHTLCVTAQLPGTGGYSGGKIIFIDTENTFRPDRLRDIADRFNVDHEAVLDNVLYARAYTSEHQMELLDYVAAKFHEEAGIFKLLIIDSIMALFRVDFSGRGELAERQQKLAQMLSRLQKISEEYNVAVFVTNQMTPDPGATMTFQADPKKPIGGHILAHASTTRISLRKGRGELRIAKIYDSPEMPENEATFAITAGGIGDAKE | binds | binds
2 | mouse wt DMC1 (protein, UniProt Q61880 1-340) MKEDQVVQEESGFQDDEESLFQDIDLLQKHGINMADIKKLKSVGICTIKGIQMTTRRALCNVKGLSEAKVEKIKEAANKLIEPGFLTAFQYSERRKMVFHITTGSQEFDKLLGGGIESMAITEAFGEFRTGKTQLSHTLCVTAQLPGTGGYSGGKIIFIDTENTFRPDRLRDIADRFNVDHEAVLDNVLYARAYTSEHQMELLDYVAAKFHEEAGIFKLLIIDSIMALFRVDFSGRGELAERQQKLAQMLSRLQKISEEYNVAVFVTNQMTADPGATMTFQADPKKPIGGHILAHASTTRISLRKGRGELRIAKIYDSPEMPENEATFAITAGGIGDAKE |  | binds
